Among the data in publication PMC6834163 are binding values, retold here.

By UniProt entry, the sequences of proteins in these tests, tags left out. Residues count along the entry.
UniProt Q9Y6R7, residues 24-5405: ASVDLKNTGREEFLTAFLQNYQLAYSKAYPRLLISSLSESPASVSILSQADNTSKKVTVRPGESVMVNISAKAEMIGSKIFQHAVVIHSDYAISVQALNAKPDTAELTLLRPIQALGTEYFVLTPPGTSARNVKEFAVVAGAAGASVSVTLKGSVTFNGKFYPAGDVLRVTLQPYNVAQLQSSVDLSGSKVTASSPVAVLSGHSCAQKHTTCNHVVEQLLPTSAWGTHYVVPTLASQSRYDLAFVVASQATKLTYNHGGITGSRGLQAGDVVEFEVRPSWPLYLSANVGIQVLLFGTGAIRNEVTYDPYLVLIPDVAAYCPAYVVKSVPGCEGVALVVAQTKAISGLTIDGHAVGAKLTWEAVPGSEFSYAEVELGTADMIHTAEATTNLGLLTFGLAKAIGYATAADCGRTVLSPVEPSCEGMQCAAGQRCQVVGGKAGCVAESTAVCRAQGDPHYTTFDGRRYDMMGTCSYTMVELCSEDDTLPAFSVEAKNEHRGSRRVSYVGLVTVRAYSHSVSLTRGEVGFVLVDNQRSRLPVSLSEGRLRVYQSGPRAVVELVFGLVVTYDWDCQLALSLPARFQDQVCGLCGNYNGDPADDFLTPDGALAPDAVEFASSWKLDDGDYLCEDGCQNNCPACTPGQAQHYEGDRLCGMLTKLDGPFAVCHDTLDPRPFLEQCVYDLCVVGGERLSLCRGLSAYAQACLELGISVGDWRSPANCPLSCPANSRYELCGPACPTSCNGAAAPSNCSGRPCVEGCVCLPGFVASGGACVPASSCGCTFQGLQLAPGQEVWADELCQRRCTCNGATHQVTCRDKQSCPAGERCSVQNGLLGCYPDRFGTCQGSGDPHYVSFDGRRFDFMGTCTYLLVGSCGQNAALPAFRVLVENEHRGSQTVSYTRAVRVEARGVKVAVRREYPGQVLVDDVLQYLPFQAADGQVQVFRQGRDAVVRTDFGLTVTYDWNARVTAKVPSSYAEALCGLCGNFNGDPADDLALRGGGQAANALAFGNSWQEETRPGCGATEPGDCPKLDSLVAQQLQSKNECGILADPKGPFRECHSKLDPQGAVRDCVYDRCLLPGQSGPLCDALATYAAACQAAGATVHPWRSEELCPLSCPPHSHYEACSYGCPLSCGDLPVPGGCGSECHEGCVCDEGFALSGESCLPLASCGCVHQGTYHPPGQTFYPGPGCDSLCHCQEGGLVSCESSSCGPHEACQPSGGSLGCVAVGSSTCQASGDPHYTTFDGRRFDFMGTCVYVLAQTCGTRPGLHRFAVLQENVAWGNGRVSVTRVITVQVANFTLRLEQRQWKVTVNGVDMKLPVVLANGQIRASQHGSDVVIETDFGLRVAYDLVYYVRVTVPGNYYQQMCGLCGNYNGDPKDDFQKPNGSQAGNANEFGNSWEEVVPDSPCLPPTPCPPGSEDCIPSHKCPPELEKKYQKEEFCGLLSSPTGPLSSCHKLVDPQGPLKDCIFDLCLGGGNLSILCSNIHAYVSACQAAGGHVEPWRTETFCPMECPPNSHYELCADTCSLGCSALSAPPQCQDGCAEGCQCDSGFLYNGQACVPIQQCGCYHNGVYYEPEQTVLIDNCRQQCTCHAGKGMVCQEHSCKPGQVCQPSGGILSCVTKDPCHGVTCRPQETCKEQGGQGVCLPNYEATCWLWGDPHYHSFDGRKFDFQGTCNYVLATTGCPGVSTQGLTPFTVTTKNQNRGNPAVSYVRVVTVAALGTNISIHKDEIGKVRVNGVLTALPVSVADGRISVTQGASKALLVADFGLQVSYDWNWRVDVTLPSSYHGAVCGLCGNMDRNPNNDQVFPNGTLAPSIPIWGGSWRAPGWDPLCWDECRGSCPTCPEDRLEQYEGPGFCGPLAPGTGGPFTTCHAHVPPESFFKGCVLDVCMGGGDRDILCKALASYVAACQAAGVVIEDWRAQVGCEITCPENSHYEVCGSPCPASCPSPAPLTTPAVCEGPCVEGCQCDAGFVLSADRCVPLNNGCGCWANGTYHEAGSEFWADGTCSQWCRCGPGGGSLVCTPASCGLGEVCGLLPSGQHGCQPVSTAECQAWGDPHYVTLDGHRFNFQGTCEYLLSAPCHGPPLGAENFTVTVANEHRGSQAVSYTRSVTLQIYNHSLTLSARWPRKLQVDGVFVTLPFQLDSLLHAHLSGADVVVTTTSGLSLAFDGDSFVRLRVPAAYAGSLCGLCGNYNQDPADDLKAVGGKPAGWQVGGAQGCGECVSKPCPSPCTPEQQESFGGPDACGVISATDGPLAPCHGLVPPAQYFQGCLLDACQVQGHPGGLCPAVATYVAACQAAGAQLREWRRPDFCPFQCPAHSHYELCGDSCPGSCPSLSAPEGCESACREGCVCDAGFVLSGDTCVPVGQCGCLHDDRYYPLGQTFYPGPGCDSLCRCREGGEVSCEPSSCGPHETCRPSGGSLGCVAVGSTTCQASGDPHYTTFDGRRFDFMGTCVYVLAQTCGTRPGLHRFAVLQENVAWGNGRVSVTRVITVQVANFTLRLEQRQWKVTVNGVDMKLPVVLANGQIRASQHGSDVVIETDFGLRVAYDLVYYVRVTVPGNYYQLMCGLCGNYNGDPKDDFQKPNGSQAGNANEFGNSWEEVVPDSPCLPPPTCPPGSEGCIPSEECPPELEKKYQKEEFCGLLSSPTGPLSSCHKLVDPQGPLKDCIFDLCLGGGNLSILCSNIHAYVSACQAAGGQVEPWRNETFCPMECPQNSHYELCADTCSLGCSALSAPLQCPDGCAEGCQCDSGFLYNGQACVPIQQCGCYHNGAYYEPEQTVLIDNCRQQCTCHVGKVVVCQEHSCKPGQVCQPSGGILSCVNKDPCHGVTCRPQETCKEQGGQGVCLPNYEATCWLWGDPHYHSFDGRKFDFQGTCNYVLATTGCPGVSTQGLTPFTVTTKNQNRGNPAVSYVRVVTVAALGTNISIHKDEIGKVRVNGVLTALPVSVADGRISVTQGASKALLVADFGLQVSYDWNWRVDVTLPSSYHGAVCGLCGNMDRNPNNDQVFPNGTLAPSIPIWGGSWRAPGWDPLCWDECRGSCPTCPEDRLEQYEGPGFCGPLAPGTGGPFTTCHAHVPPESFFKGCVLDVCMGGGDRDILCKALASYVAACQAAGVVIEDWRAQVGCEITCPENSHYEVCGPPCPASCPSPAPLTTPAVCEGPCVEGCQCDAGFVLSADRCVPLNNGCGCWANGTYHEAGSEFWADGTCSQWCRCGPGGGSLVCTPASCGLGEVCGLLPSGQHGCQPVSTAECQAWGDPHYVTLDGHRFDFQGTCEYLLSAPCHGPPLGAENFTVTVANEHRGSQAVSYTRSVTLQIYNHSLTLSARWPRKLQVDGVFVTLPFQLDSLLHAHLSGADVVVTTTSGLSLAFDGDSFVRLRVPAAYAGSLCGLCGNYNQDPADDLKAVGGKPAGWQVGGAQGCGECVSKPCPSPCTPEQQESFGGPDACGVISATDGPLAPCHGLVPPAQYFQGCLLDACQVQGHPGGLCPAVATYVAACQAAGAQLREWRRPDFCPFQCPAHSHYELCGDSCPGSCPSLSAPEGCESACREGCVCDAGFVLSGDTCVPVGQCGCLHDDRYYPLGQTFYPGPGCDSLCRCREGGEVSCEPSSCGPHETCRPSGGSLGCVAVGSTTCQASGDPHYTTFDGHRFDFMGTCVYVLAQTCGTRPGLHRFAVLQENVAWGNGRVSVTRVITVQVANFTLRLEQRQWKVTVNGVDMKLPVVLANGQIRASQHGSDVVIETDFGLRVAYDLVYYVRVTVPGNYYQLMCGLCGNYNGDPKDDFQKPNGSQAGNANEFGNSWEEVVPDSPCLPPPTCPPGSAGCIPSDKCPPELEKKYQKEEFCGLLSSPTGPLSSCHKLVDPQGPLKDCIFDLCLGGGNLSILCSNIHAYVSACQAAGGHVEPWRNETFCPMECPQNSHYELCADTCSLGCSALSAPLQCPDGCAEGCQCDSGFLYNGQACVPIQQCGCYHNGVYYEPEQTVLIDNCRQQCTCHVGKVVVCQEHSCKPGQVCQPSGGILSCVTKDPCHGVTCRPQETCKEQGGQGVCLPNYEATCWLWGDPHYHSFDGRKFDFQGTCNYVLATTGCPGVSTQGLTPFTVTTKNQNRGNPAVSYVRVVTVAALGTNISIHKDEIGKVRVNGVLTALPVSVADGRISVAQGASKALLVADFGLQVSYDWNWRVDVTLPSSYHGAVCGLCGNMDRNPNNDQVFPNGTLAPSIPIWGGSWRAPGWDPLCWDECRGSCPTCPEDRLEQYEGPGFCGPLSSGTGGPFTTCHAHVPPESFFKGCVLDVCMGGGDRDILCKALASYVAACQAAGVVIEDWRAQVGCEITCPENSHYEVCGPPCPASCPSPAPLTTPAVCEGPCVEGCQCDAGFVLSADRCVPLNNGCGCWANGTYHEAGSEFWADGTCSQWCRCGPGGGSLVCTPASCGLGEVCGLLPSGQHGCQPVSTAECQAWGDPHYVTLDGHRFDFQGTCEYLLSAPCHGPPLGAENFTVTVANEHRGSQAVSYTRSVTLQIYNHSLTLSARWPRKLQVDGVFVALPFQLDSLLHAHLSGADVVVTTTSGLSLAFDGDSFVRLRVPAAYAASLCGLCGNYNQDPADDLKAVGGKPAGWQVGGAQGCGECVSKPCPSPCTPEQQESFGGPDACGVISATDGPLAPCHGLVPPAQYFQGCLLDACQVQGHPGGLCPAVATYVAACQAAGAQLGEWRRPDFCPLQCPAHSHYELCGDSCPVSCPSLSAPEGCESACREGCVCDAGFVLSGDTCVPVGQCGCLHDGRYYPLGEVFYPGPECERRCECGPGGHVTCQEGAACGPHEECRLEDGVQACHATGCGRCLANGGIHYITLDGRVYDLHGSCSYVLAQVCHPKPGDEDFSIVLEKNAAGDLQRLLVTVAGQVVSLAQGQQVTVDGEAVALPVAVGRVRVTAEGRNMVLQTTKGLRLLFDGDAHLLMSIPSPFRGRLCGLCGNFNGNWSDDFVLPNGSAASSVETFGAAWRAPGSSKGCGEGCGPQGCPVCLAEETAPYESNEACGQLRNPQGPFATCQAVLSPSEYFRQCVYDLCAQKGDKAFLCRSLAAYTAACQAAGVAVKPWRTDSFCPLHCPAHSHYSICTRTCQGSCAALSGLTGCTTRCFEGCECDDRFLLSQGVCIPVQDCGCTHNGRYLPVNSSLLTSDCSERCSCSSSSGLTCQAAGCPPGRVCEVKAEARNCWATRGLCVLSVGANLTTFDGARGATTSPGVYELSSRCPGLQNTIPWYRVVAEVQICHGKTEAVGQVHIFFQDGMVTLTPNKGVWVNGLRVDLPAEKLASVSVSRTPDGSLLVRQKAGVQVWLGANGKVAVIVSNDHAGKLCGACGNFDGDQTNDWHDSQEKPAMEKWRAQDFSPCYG

Assay [1] concerns the target IgG Fc binding protein (FCGBP) (human (endogenous in saliva)) (UniProt Q9Y6R7). Kind of assay: native gel or EMSA; saliva of three individuals separated by SEC (Superdex 75 HL; 20 mM Tris-HCl pH 7.0, 30 mM NaCl); high-molecular-mass fractions B7 run on 1% non-denaturing agarose gel (0.1% SDS) and Western blotted with antisera against TFF3 and FCGBP; both recognized the same bands. (Mobility shift assays separate free from complexed probe on a gel.)

Assay [2] has as its target TFF3 (trefoil factor family peptide 3) (human (endogenous in saliva)) (UniProt Q07654). The assay is described as follows: SDS-PAGE under non-reducing versus reducing conditions with Western blot; low-molecular-mass SEC fractions of saliva (Superdex 75 HL; some also after Resource Q6 anion exchange); 15% SDS-PAGE, anti-TFF3 Western blot; 18k band non-reduced, 7k band reduced.

These are yes or no findings as the source states them, for the method shown. Some entries that bind do so weakly or less than the wild type.

B1: TFF3 (trefoil factor family peptide 3) (protein, UniProt Q07654 22-80)
chain: EEYVGLSANQCAVPAKDRVDCGYPHVTPKECNNRGCCFDSRIPGVPWCFKPLQEAECTF
Turning to B1, the binding entry in assay [1] and in assay [2] was “binds” each time.
